Values from PubChem BioAssay AID504804 (Drosophila RNAi Screening Center, 2011).
The deposit covers about 19,000 reagents; shown is an unselected part of those that have a named target and a result. Of all reagents, 47 (0.25%) got an active call. 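Signals are raw, not normalised; exact z-scores behind calls not deposited; actives needed confirmation, so some wells reaching 2 SD are inactive.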 Entries without a mark were called inactive. A plus sign joins genes that one reagent is predicted to hit.

Aim: 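Fly genes whose loss lessens doxorubicin-driven cell death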 (primary screen)
Cell system: Drosophila Kc cells
Knock-down reagent: long dsRNA against Drosophila genes, 0.5 µg dsRNA per well
Duration: 96 h (48 h knock-down, then 48 h drug)
Conditions: doxorubicin 5 µg/ml for 48 h, added 48 h after dsRNA
Detection: 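Luminescent ATP counts per replicate, not normalised, reflecting viable cells after 48 h dsRNA knock-down followed by 48 h of 5 µg/ml doxorubicin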
Reading the numbers: raw ATP luminescence: higher = more viable cells, protection from doxorubicin
Active means: 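z-score of 2 or more over plate mean in both duplicates, retained only when retests and separate dsRNAs confirm the protection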

| predicted target | amplicon | raw ATP luminescence, replicate 1 | raw ATP luminescence, replicate 2 |
| --- | --- | --- | --- |
| CG17493 | DRSC03798 | 48123 | 51560 |
| stol (stolid) | DRSC01956 | 69433 | 73967 |
| bma (black match) | DRSC09896 | 87437 | 68013 |
| bma (black match) | DRSC10164 | 79963 | 63693 |
| Crz (Corazonin) | DRSC16615 | 77760 | 61020 |
| Usp7 (Ubiquitin-specific protease 7) | DRSC18909 | 3.00e5 | 2.95e5 |
| Usp7 (Ubiquitin-specific protease 7) | DRSC19604 | 3.58e5 | 2.97e5 |
| Chmp1 (Charged multivesicular body protein 1) | DRSC10401 | 23763 | 30267 |
| CG10839 | DRSC01965 | 60710 | 66860 |
| CG1172 | DRSC12182 | 64487 | 59000 |
| CG34166 | DRSC02482 | 1.88e5 | 2.20e5 |
| Asap (ArfGAP with SH3 domain, ankyrin repeat and PH domain) | DRSC06493 | 63103 | 80197 |
| Asap (ArfGAP with SH3 domain, ankyrin repeat and PH domain) | DRSC06830 | 73497 | 61550 |
| CG11249 | DRSC11645 | 84047 | 66637 |
| Ir20a (Ionotropic receptor 20a) | DRSC20506 | 3.65e5 | 2.86e5 |
| ATPsyngamma (ATP synthase, gamma subunit) | DRSC14094 | 49530 | 36080 |
| PK2-R1 (Pyrokinin 2 receptor 1) | DRSC16447 | 50750 | 51490 |
| CG15236 | DRSC04970 | 48527 | 1.15e5 |
| CG1979 | DRSC12495 | 39020 | 22017 |
| CG33919 | DRSC04940 | 76577 | 78057 |
| CG42336 | DRSC05273 | 95117 | 88523 |
| CG42336 | DRSC06333 | 1.83e5 | 1.81e5 |
| Fatp2 (Fatty acid transport protein 2) | DRSC03971 | 67640 | 80347 |
| Fatp2 (Fatty acid transport protein 2) | DRSC04178 | 60047 | 52137 |
| Fatp2 (Fatty acid transport protein 2) | DRSC04330 | 70657 | 64313 |
| Larp7 (La related protein 7) | DRSC18798 | 2.88e5 | 2.44e5 |
| CG17824 (retired record) | DRSC10288 | 75980 | 1.52e5 |
| sw + Sdic4 + Sdic3 + 2 more | DRSC20696 | 3.39e5 | 3.67e5 |
| Ret (Ret oncogene) | DRSC03409 | 82547 | 71793 |
| Ret (Ret oncogene) | DRSC03410 | 63973 | 46993 |
| CG31183 | DRSC14403 | 73580 | 79230 |
| CG31183 | DRSC15554 | 41823 | 47013 |
| mirr (mirror) | DRSC11369 | 65920 | 59333 |
| para (paralytic) | DRSC19141 | 1.74e5 | 1.80e5 |
| para (paralytic) | DRSC20360 | 2.13e5 | 1.82e5 |
| Ankrd49 | DRSC01894 | 71807 | 70633 |
| Or71a (Odorant receptor 71a) | DRSC11244 | 49147 | 39610 |
| Hip14 (Huntingtin-interacting protein 14) | DRSC10570 | 22140 | 35173 |

Look-ups from the entries so far:
For “raw ATP luminescence, replicate 1”, CG31183 [DRSC15554] has 41823
Entry for Usp7 (Ubiquitin-specific protease 7) [DRSC18909] under “raw ATP luminescence, replicate 1”: 3.00e5
Ret (Ret oncogene) [DRSC03410], raw ATP luminescence, replicate 1 → 63973
CG1979 [DRSC12495], raw ATP luminescence, replicate 2 = 22017
CG10839 [DRSC01965], raw ATP luminescence, replicate 1 → 60710
Under “raw ATP luminescence, replicate 2”, Fatp2 (Fatty acid transport protein 2) [DRSC04178] has 52137

The listing continues.
| predicted target | amplicon | raw ATP luminescence, replicate 1 | raw ATP luminescence, replicate 2 |
| --- | --- | --- | --- |
| PPO2 (Prophenoloxidase 2) | DRSC07102 | 62683 | 48580 |
| UQCR-Q (Ubiquinol-cytochrome c reductase ubiquinone-binding protein) | DRSC10886 | 44463 | 43987 |
| Yif1 (Yip1-interacting factor 1) | DRSC15817 | 46770 | 42390 |
| mtrm (matrimony) | DRSC10322 | 27607 | 23483 |
| Iyd (Iodotyrosine deiodinase) | DRSC10614 | 99993 | 93250 |
| Iyd (Iodotyrosine deiodinase) | DRSC10615 | 99857 | 1.51e5 |
| Sry-alpha (Serendipity alpha) | DRSC16867 | 68890 | 68640 |
| CG14654 (retired record) | DRSC12240 | 72830 | 61590 |
| Eig71Ec (Ecdysone-induced gene 71Ec) | DRSC11150 | 54743 | 42287 |
| Mppe (Metallophosphoesterase) | DRSC07296 | 65067 | 47747 |
| Ir84a (Ionotropic receptor 84a) | DRSC12510 | 62150 | 59563 |
| CG11069 | DRSC14289 | 32257 | 43113 |
| dtr (defective transmitter release) | DRSC01847 | 68563 | 58693 |
| CG16972 | DRSC02550 | 1.13e5 | 87620 |
| CG18130 | DRSC19790 | 4.00e5 | 3.55e5 |
| sm (smooth) | DRSC05795 | 1.56e5 | 1.40e5 |
| sm (smooth) | DRSC07686 | 44357 | 59363 |
| MED27 (Mediator complex subunit 27) | DRSC12205 | 62967 | 61870 |
| CG15651 | DRSC04242 | 67210 | 62020 |
